Data from PubChem BioAssay AID624246 (National Center for Advancing Translational Sciences (NCATS), 2012).
In all, about 370,000 compounds went through this assay and about 100 (0.027%) were called active. The shares of active, inactive and inconclusive entries below differ from those in the screen. The call rests on the fitted dose curve; in most records, active means well fitted inhibition curve with a large enough effect in the polarisation, with a control signal flat; inconclusive means small, poorly fitted or top-dose-only effect, or effect the other way, or a change in a side signal; inactive means no such curve, though single readings can be large or run the other way; the % refers to the polarisation. Where the call is inconclusive, the potency comes from a doubtful curve fit. “Side channel” marks fits to a control or component signal instead of the main read-out.

Sequences of proteins named here, by UniProt entry; tags and fusion partners are left off.
UniProt P11308, whole entry, looked up: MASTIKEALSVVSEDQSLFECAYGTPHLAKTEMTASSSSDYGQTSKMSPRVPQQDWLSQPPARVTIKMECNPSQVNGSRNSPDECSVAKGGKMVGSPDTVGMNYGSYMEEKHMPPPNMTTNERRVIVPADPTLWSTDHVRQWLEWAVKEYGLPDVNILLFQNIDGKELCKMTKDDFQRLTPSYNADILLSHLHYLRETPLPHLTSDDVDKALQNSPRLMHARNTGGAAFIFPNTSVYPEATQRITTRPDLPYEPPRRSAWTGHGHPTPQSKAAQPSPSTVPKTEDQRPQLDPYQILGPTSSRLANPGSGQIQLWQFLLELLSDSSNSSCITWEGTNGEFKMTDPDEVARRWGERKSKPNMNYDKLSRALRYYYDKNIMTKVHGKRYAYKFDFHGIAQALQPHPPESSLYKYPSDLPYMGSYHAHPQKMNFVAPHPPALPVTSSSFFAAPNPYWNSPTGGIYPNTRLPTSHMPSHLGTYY

Molecular target: Transcriptional regulator ERG (Homo sapiens) (UniProt P11308)
Assay: qHTS for Small Molecule Inhibitors of the ERG Ets/DNA interaction; on FP activity, negative = inhibition: % of control where 0% means no effect
Details: fluorescence polarization, His-ERG Ets domain / labelled DNA; FP activity, negative = inhibition: at 76.9 µM (top of the series)
Outline: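 His-tagged ERG Ets domain (1 uM in the protein solution; 300mM KCl, 50mM Tris-HCl, 1mM EDTA, 1mM DTT, pH 7.5) received compound, then a probe mix of 5 nM fluorescein-DNA and 100nM Texas-615-DNA. Fluorescence polarization was read for both dyes.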
Potency means the concentration at half of the fitted maximal effect.

| Compound | Potency | FP activity, negative = inhibition |
| --- | --- | --- |
| CC1Cc2cc(S(=O)(=O)CCC(=O)Nc3ccc(F)cc3Cl)ccc2N1C(=O)C1CC1 (stereo unspecified) | inconclusive: 6.31 µM [quencher, side channel, full curve] |  |
| Nc1ccc2c(O)cc(S(=O)(=O)O)cc2c1 | inconclusive: 11.2 µM [inhibitor, single point] |  |
| COCCN(CCOC)C(=O)c1ccc(SCc2ccc(C)cc2)c([N+](=O)[O-])c1 | inconclusive: 8.91 µM [quencher, side channel, full curve, poor fit] |  |
| Cc1c(Cl)cccc1NC(=O)Cn1nnc2sc3c(c2c1=O)CCCC3 | inconclusive: 11.2 µM [quencher, side channel, single point] |  |
| Cc1oc(-c2cccc(Cl)c2)nc1CN1CCCC(C(=O)N2CCN(c3ccc(F)cc3)CC2)C1 (stereo unspecified) |  | inactive: 6.83% |
| c1cncc(-c2nc(NCC3COc4ccccc4O3)c3ccccc3n2)c1 (stereo unspecified) | inconclusive: 28.2 µM [quencher, side channel, partial curve] |  |
| Nc1nc(Cl)c2ncn(C3OC(CO)C(O)C3O)c2n1 (stereo unspecified) | inconclusive: 50.1 µM [inhibitor, partial curve, poor fit] |  |
| NC(=O)/C(=C/c1ccco1)NC(=O)/C=C/c1ccccc1 |  | inactive: -5.53% |
| CC(=O)Nc1ccc(C(=O)OCC(=O)Nc2c(F)cccc2F)cc1 | inconclusive: 50.1 µM [inhibitor, single point] |  |
| Cc1ccc(OCC(=O)OC2CCCN(C)C2)cc1 (stereo unspecified) | inconclusive: 50.1 µM [inhibitor, single point] |  |
| COc1ccccc1CC(=O)c1ccc(OCc2ccccc2)cc1 |  | inactive: -16.1% |
| CN(C)c1nc(N)nc(Cn2nnc(-c3ccc(C(F)(F)F)cc3)n2)n1 | inconclusive: 44.7 µM [inhibitor, single point] |  |
| CC(=O)OCC(=O)[C@@]1(O)CC[C@H]2[C@@H]3CCC4=CC(=O)C=C[C@]4(C)[C@H]3[C@@H](O)C[C@@]21C | inconclusive: 6.31 µM [inhibitor, single point] |  |
| CCN1/C(=C/c2cc[n+](CCCS(=O)(=O)[O-])c3ccccc23)Sc2ccccc21 | inconclusive: 17.8 µM [fluorescent, side channel, partial curve] |  |
| CCc1ccc(NC(=O)/C(C#N)=C/c2cc3ccc(C)cc3nc2N2CCOCC2)cc1 | inconclusive: 50.1 µM [inhibitor, single point] |  |
| CCn1cc2nc(SCc3cccc(C(F)(F)F)c3)n(CCc3ccccc3)c(=O)c2n1 |  | inactive: -5.46% |
| Cc1cc(N)n(-c2ccc(Oc3ccccc3)c(S(=O)(=O)O)c2)n1 |  | inactive: -1.58% |
| CCC(Oc1ccccc1F)C(=O)NCCCn1ccnc1 (stereo unspecified) | inconclusive: 2.51 µM [inhibitor, partial curve, poor fit] |  |
| Cc1ccc(-c2nc3ccc([N+](=O)[O-])cc3[nH]2)cc1 |  | inactive: 4.22% |
| COc1cc2c(cc1OC)C1=NC(=O)CN1C(SCc1ccc(C)cc1)=N2 | inconclusive: 28.2 µM [fluorescent, side channel, partial curve, poor fit] |  |
| C#CCOc1c(Cl)cc(/C=N/O)cc1OC | inconclusive: 3.98 µM [quencher, side channel, partial curve, poor fit] |  |

| Compound | Potency | FP activity, negative = inhibition |
| --- | --- | --- |
| Cc1cc(C)cc(N2C(=O)c3nccnc3C2=O)c1 | inconclusive: 2.82 µM [inhibitor, single point] |  |
| CCOc1cc(CNCC2CCCN2CC)cc(Cl)c1OC (stereo unspecified) | inconclusive: 11.2 µM [inhibitor, single point] |  |
| Cc1noc(C)c1CSc1nc2ccccc2n1CCc1ccccc1 |  | inactive: 0.406% |
| COc1ccc(CCNC(=O)CCNC(=O)c2ccco2)cc1 | inconclusive: 10 µM [inhibitor, single point] |  |
| CCOC(=O)c1c(NC(=O)c2cc(=O)c3ccc(C)cc3o2)sc(C)c1C |  | inactive: 0.735% |
| Oc1ccc(NCc2ccc(OCc3ccccc3Cl)cc2)cc1 | inconclusive: 35.5 µM [inhibitor, partial curve, poor fit] |  |
| O=C(NCCN1CCOCC1)c1sc2ccccc2c1Cl |  | inactive: 6.44% |
| Cc1[nH]c2ccc(C(=O)OCC(=O)Nc3cccc(S(N)(=O)=O)c3)cc2c1C | inconclusive: 3.98 µM [inhibitor, partial curve, poor fit] |  |
| CCOC(=O)C1=C(C)N=C2c3ccccc3C(=O)C2C1c1ccc(Cl)cc1 (stereo unspecified) |  | inactive: -2.88% |
| Cc1cccc(N2C(=O)CC(Cn3nc(C)cc3C)C2=O)c1 (stereo unspecified) | inconclusive: 12.6 µM [inhibitor, partial curve, poor fit] |  |
| COc1ccccc1/C=N/NC(=O)CC(=O)NCCc1ccccc1 | inconclusive: 28.2 µM [quencher, side channel, partial curve, poor fit] |  |
| CCCCc1oc2ccccc2c1C(=O)c1cc(I)c(OCCN(CC)CC)c(I)c1 | inconclusive: 50.1 µM [inhibitor, single point] |  |
| CSCC[C@H](NC(=O)OC(C)(C)C)C(=O)N1CCC(C(=O)N[C@@H](C)C(=O)NCc2ccc(F)cc2)CC1 | inconclusive: 7.08 µM [inhibitor, single point] |  |
| C=CCSC(=S)NC1CCS(=O)(=O)C1 (stereo unspecified) | inconclusive: 11.2 µM [quencher, side channel, single point] |  |
| Cn1c(=O)[nH]c(=O)c2c1[nH]c(=S)n2CCCc1ccccc1 | inconclusive: 50.1 µM [inhibitor, single point] |  |
| N#CC1(NC(=O)CSc2nc3ccc([N+](=O)[O-])cc3s2)CCCCC1 | inconclusive: 2.51 µM [inhibitor, partial curve, poor fit] |  |
| CNC(=O)CCSSCCC(=O)NC | inconclusive: 31.6 µM [inhibitor, partial curve, poor fit] |  |
| CCOc1ccc(/C=C/C(=O)Nc2sc3c(c2C(=O)OC)CCC3)cc1 | inconclusive: 7.94 µM [quencher, side channel, single point] |  |
| O=C(CSc1nnc2ccccn12)c1ccc2c(c1)OCCO2 |  | inactive: 2.76% |
| O=C(Nc1ccc(O)cc1C(=O)O)c1ccc2c(c1)C(=O)N(Cc1ccco1)C2=O | inconclusive: 44.7 µM [quencher, side channel, single point] |  |

Entries above with an aryl thioether with sulfur outside any ring, in the order listed:

| Compound | Potency | FP activity, negative = inhibition |
| --- | --- | --- |
| COCCN(CCOC)C(=O)c1ccc(SCc2ccc(C)cc2)c([N+](=O)[O-])c1 | inconclusive: 8.91 µM [quencher, side channel, full curve, poor fit] |  |
| CCn1cc2nc(SCc3cccc(C(F)(F)F)c3)n(CCc3ccccc3)c(=O)c2n1 |  | inactive: -5.46% |
| Cc1noc(C)c1CSc1nc2ccccc2n1CCc1ccccc1 |  | inactive: 0.406% |
| N#CC1(NC(=O)CSc2nc3ccc([N+](=O)[O-])cc3s2)CCCCC1 | inconclusive: 2.51 µM [inhibitor, partial curve, poor fit] |  |
| O=C(CSc1nnc2ccccn12)c1ccc2c(c1)OCCO2 |  | inactive: 2.76% |
